Results are given in words; binding and its absence hold for the method and conditions named. In cells and extracts the contact can be indirect. Some binding calls cover weakened binding; strength is not graded here.
Legend:
[1] = molecular target: T1, CCAAT/enhancer-binding protein beta (C/EBPβ), endogenous (rat (endogenous in NRCMs and rat heart)) (UniProt P21272); experiment: co-IP; NRCM lysates precipitated with anti-C/EBPβ antibody, blots for PARP1, PAR or SUMO1; cells infected or transfected with WT PARP1 or E988K, siPARP1, 3AB (20 μmol/L), PE (100 μmol/L)
T1 sequence: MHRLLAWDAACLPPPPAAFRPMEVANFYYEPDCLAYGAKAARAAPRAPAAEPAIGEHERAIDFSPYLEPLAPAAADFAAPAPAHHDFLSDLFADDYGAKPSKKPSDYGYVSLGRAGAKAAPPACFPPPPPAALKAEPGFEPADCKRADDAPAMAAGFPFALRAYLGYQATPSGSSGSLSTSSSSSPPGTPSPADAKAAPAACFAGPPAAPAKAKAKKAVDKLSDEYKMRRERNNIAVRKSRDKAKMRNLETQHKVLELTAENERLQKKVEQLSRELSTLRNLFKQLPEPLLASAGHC

Sequences of proteins named here, by UniProt entry; tags and fusion partners are left off. A change or cut given only in a name is not applied to a line headed by its entry.
UniProt P27008: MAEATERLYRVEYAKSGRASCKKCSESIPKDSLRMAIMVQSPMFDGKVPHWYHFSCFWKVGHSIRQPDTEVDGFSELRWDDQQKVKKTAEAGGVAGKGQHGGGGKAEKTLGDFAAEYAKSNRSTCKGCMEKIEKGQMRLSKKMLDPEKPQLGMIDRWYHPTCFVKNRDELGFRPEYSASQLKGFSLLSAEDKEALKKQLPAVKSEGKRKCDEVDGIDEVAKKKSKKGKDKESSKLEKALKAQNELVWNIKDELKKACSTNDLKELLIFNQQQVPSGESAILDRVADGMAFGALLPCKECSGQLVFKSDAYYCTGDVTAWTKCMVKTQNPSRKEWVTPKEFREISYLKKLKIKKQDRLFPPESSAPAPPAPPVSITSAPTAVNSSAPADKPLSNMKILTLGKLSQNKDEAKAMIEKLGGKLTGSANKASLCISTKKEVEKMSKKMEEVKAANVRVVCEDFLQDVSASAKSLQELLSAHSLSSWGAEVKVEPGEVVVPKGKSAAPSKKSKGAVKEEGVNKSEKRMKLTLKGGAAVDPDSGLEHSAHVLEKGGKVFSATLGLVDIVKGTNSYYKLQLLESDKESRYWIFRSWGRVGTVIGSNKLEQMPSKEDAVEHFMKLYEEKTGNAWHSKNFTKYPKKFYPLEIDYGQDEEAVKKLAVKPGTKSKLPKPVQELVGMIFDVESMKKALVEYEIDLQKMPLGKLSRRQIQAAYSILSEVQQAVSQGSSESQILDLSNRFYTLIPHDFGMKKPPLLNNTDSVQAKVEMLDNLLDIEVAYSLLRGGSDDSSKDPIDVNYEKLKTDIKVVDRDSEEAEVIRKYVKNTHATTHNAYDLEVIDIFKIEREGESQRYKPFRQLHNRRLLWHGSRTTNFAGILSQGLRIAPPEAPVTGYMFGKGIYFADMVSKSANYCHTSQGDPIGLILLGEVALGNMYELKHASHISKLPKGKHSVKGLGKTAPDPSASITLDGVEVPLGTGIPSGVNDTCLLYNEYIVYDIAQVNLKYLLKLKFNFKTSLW

[2] = molecular target: T1, CCAAT/enhancer-binding protein beta (C/EBPβ), endogenous (rat (endogenous in NRCMs and rat heart)); experiment: co-IP; rat heart tissue lysate precipitated with anti-C/EBPβ antibody, Western blot; Sham, AAC, AAC with 3AB

Row | binding [1] | binding [2] | Substance
1 | binds | – | PARP1 (E988K) mutant (from UniProt P27008 1-1014) (enzyme)
2 | binds | – | PARP1, wild type, overexpressed in NRCMs (Ad-PARP1) (from UniProt P27008 1-1014) (enzyme)
3 | binds | binds | Poly(ADP-ribose) polymerase-1 (PARP1), endogenous (from UniProt P27008 1-1014) (enzyme)

From paper PMC8741850
